Source: the supplement of paper PMC8728848
The list shows a part of the results.

How the values were obtained:
Test in all cases: glycan array binding signal (z-score within array); higher = stronger binding
Settings in all cases: glycan notation: IUPAC condensed, linker removed
[1] = target: Fuc(a1-2)[GalNAc(a1-3)]Gal(b1-4)GlcNAc(b1-3)GalNAc
Method in brief: (§1)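 The binding signal is a Z-score computed within each array. Data were drawn from 3228 arrays in the Consortium for Functional Glycomics database, restricted to those with a known protein sequence. Scores were averaged over arrays of the same protein sequence at different concentrations or buffers, and over linkers, and negative values can be taken as non-binding.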

[2] = target: Fuc(a1-2)[GalNAc(a1-3)]Gal(b1-4)[Fuc(a1-3)]GlcNAc
Method in brief: as §1

[3] = target: Fuc(a1-2)[GalNAc(a1-3)]Gal(b1-4)[Fuc(a1-3)]GlcNAc(b1-3)GalNAc
Method in brief: as §1

[4] = target: Fuc(a1-2)[GalNAc(a1-4)]Gal(b1-4)GlcNAc
Method in brief: as §1

[5] = target: Fuc(a1-2)[GalNAc(b1-3)]Gal
Method in brief: as §1

Fuc(a1-3)GlcNAc = target: Fuc(a1-3)GlcNAc
Method in brief: as §1

[6] = target: Fuc(a1-3)[Gal(b1-4)]Glc6S
Method in brief: as §1

[7] = target: Fuc(a1-3)[Gal(b1-4)]GlcNAc
Method in brief: as §1

[8] = target: Fuc(a1-3)[Gal(b1-4)]GlcNAc(b1-2)Man(a1-3)[Fuc(a1-3)[Gal(b1-4)]GlcNAc(b1-2)Man(a1-6)]Man(b1-4)GlcNAc(b1-4)GlcNAc
Method in brief: as §1

[9] = target: Fuc(a1-3)[Gal(b1-4)]GlcNAc(b1-2)Man(a1-3)[Fuc(a1-3)[Gal(b1-4)]GlcNAc(b1-2)Man(a1-6)]Man(b1-4)GlcNAc(b1-4)[Fuc(a1-6)]GlcNAc
Method in brief: as §1

[10] = target: Fuc(a1-3)[Gal(b1-4)]GlcNAc(b1-3)Gal(b1-3)[Fuc(a1-4)]GlcNAc
Method in brief: as §1

[11] = target: Fuc(a1-3)[Gal(b1-4)]GlcNAc(b1-3)GalNAc
Method in brief: as §1

[12] = target: Fuc(a1-3)[Gal(b1-4)]GlcNAc(b1-4)Gal(b1-4)[Fuc(a1-3)]GlcNAc
Method in brief: as §1

[13] = target: Fuc(a1-3)[Gal(b1-4)]GlcNAc(b1-4)Gal(b1-4)[Fuc(a1-3)]GlcNAc(b1-4)Gal(b1-4)[Fuc(a1-3)]GlcNAc
Method in brief: as §1

[14] = target: Fuc(a1-3)[Gal(b1-4)]GlcNAc(b1-6)[Gal(b1-3)GlcNAc(b1-3)]Gal(b1-4)Glc
Method in brief: as §1

[15] = target: Fuc(a1-3)[Gal(b1-4)]GlcNAc6S
Method in brief: as §1

[16] = target: Fuc(a1-3)[Gal3S(b1-4)]GlcNAc
Method in brief: as §1

[17] = target: Fuc(a1-3)[Gal3S(b1-4)]GlcNAc6S
Method in brief: as §1

[18] = target: Fuc(a1-3)[GalNAc(b1-4)]GlcNAc
Method in brief: as §1

Fuc(a1-4)GlcNAc = target: Fuc(a1-4)GlcNAc
Method in brief: as §1

Fuc(b1-3)GlcNAc = target: Fuc(b1-3)GlcNAc
Method in brief: as §1

Gal(a1-2)Gal = target: Gal(a1-2)Gal
Method in brief: as §1

Gal(a1-3)Gal = target: Gal(a1-3)Gal
Method in brief: as §1

Gal(a1-3)Gal(b1-3)GlcNAc = target: Gal(a1-3)Gal(b1-3)GlcNAc
Method in brief: as §1

[19] = target: Gal(a1-3)Gal(b1-3)GlcNAc(b1-2)Man(a1-3)[Gal(a1-3)Gal(b1-3)GlcNAc(b1-2)Man(a1-6)]Man(b1-4)GlcNAc(b1-4)GlcNAc
Method in brief: as §1

[20] = target: Gal(a1-3)Gal(b1-3)GlcNAc(b1-3)GalNAc
Method in brief: as §1

[21] = target: Gal(a1-3)Gal(b1-3)[Fuc(a1-4)]GlcNAc(b1-2)Man(a1-3)[Gal(a1-3)Gal(b1-3)[Fuc(a1-4)]GlcNAc(b1-2)Man(a1-6)]Man(b1-4)GlcNAc(b1-4)GlcNAc
Method in brief: as §1

Gal(a1-3)Gal(b1-4)Glc = target: Gal(a1-3)Gal(b1-4)Glc
Method in brief: as §1

Gal(a1-3)Gal(b1-4)GlcNAc = target: Gal(a1-3)Gal(b1-4)GlcNAc
Method in brief: as §1

[22] = target: Gal(a1-3)Gal(b1-4)GlcNAc(b1-3)GalNAc
Method in brief: as §1

[23] = target: Gal(a1-3)Gal(b1-4)[Fuc(a1-3)]GlcNAc
Method in brief: as §1

[24] = target: Gal(a1-3)Gal(b1-4)[Fuc(a1-3)]GlcNAc(b1-2)Man(a1-3)[Gal(a1-3)Gal(b1-4)[Fuc(a1-3)]GlcNAc(b1-2)Man(a1-6)]Man(b1-4)GlcNAc(b1-4)GlcNAc
Method in brief: as §1

Gal(a1-3)GalNAc = target: Gal(a1-3)GalNAc
Method in brief: as §1

[25] = target: Gal(a1-3)[Gal(a1-4)]Gal(b1-4)GlcNAc
Method in brief: as §1

[26] = target: Gal(a1-4)Gal(b1-3)GlcNAc(b1-2)Man(a1-3)[Gal(a1-4)Gal(b1-3)GlcNAc(b1-2)Man(a1-6)]Man(b1-4)GlcNAc(b1-4)GlcNAc
Method in brief: as §1

Gal(a1-4)Gal(b1-4)Glc = target: Gal(a1-4)Gal(b1-4)Glc
Method in brief: as §1

Gal(a1-4)Gal(b1-4)GlcNAc = target: Gal(a1-4)Gal(b1-4)GlcNAc
Method in brief: as §1

[27] = target: Gal(a1-4)Gal(b1-4)GlcNAc(b1-2)Man(a1-3)[Gal(a1-4)Gal(b1-4)GlcNAc(b1-2)Man(a1-6)]Man(b1-4)GlcNAc(b1-4)GlcNAc
Method in brief: as §1

[28] = target: Gal(a1-4)Gal(b1-4)GlcNAc(b1-3)Gal(b1-4)Glc
Method in brief: as §1

Gal(a1-4)GlcNAc = target: Gal(a1-4)GlcNAc
Method in brief: as §1

Gal(a1-6)Glc = target: Gal(a1-6)Glc
Method in brief: as §1

Gal(b1-2)Gal = target: Gal(b1-2)Gal
Method in brief: as §1

Gal(b1-3)Gal = target: Gal(b1-3)Gal
Method in brief: as §1

Gal(b1-3)Gal(b1-4)GlcNAc = target: Gal(b1-3)Gal(b1-4)GlcNAc
Method in brief: as §1

[29] = target: Gal(b1-3)Gal(b1-4)GlcNAc(b1-2)Man(a1-3)[Gal(b1-3)Gal(b1-4)GlcNAc(b1-2)Man(a1-6)]Man(b1-4)GlcNAc(b1-4)GlcNAc
Method in brief: as §1

Gal(b1-3)GalNAc = target: Gal(b1-3)GalNAc
Method in brief: as §1

[30] = target: Gal(b1-3)GalNAc(a1-3)[Fuc(a1-2)]Gal(b1-4)Glc
Method in brief: as §1

[31] = target: Gal(b1-3)GalNAc(a1-3)[Fuc(a1-2)]Gal(b1-4)GlcNAc
Method in brief: as §1

[32] = target: Gal(b1-3)GalNAc(b1-3)Gal(a1-4)Gal(b1-4)Glc
Method in brief: as §1

[33] = target: Gal(b1-3)GalNAc(b1-4)Gal(b1-4)Glc
Method in brief: as §1

[34] = target: Gal(b1-3)GalNAc(b1-4)[Neu5Ac(a2-3)]Gal(b1-4)Glc
Method in brief: as §1

Gal(b1-3)GlcNAc = target: Gal(b1-3)GlcNAc
Method in brief: as §1

[35] = target: Gal(b1-3)GlcNAc(a1-6)Gal(b1-4)GlcNAc
Method in brief: as §1

[36] = target: Gal(b1-3)GlcNAc(b1-2)Man(a1-3)[Gal(b1-3)GlcNAc(b1-2)Man(a1-6)]Man(b1-4)GlcNAc(b1-4)GlcNAc
Method in brief: as §1

[37] = target: Gal(b1-3)GlcNAc(b1-2)Man(a1-3)[Gal(b1-3)GlcNAc(b1-2)Man(a1-6)]Man(b1-4)GlcNAc(b1-4)[Fuc(a1-6)]GlcNAc
Method in brief: as §1

[38] = target: Gal(b1-3)GlcNAc(b1-2)[Gal(b1-3)GlcNAc(b1-6)]Man(a1-6)[Gal(b1-3)GlcNAc(b1-2)Man(a1-3)]Man(b1-4)GlcNAc(b1-4)GlcNAc
Method in brief: as §1

[39] = target: Gal(b1-3)GlcNAc(b1-3)Gal(b1-3)GlcNAc
Method in brief: as §1

[40] = target: Gal(b1-3)GlcNAc(b1-3)Gal(b1-4)Glc
Method in brief: as §1

[41] = target: Gal(b1-3)GlcNAc(b1-3)Gal(b1-4)GlcNAc
Method in brief: as §1

[42] = target: Gal(b1-3)GlcNAc(b1-3)Gal(b1-4)GlcNAc(b1-6)[Gal(b1-3)GlcNAc(b1-3)]Gal(b1-4)Glc
Method in brief: as §1

B1: rPitB (Streptococcus pneumoniae), A0A0I7U739 (protein)
chain: MSEIEIINAKKIYHDVPVIENLNITIPKGSLFTLLGASGCGKTTLLRMIAGFNSIKDGEFYFDDTKINNMEPSKRNIGLVFQNYAIFPHLTVRDNVAFGLMQKKVPKEELIQQTNKYLELMQIAQYAD
[1]
  glycan array binding signal (z-score): -0.706
[2]
  glycan array binding signal (z-score): -0.499
[3]
  glycan array binding signal (z-score): 0.771
[4]
  glycan array binding signal (z-score): 0.875
[5]
  glycan array binding signal (z-score): -0.231
Fuc(a1-3)GlcNAc
  glycan array binding signal (z-score): 1
[6]
  glycan array binding signal (z-score): -0.329
[7]
  glycan array binding signal (z-score): 0.422
[8]
  glycan array binding signal (z-score): -0.339
[9]
  glycan array binding signal (z-score): 1.09
[10]
  glycan array binding signal (z-score): 0.092
[11]
  glycan array binding signal (z-score): 0.108
[12]
  glycan array binding signal (z-score): 1.25
[13]
  glycan array binding signal (z-score): 3.03
[14]
  glycan array binding signal (z-score): -0.293
[15]
  glycan array binding signal (z-score): -0.514
[16]
  glycan array binding signal (z-score): -0.426
[17]
  glycan array binding signal (z-score): 0.928
[18]
  glycan array binding signal (z-score): 0.122
Fuc(a1-4)GlcNAc
  glycan array binding signal (z-score): -0.579
Fuc(b1-3)GlcNAc
  glycan array binding signal (z-score): -0.161
Gal(a1-2)Gal
  glycan array binding signal (z-score): -0.313
Gal(a1-3)Gal
  glycan array binding signal (z-score): -1.07
Gal(a1-3)Gal(b1-3)GlcNAc
  glycan array binding signal (z-score): -0.408
[19]
  glycan array binding signal (z-score): 1.52
[20]
  glycan array binding signal (z-score): 0.498
[21]
  glycan array binding signal (z-score): 0.372
Gal(a1-3)Gal(b1-4)Glc
  glycan array binding signal (z-score): -0.617
Gal(a1-3)Gal(b1-4)GlcNAc
  glycan array binding signal (z-score): 0.196
[22]
  glycan array binding signal (z-score): 0.528
[23]
  glycan array binding signal (z-score): -0.839
[24]
  glycan array binding signal (z-score): 0.572
Gal(a1-3)GalNAc
  glycan array binding signal (z-score): -0.409
[25]
  glycan array binding signal (z-score): 0.488
[26]
  glycan array binding signal (z-score): 0.766
Gal(a1-4)Gal(b1-4)Glc
  glycan array binding signal (z-score): 1.33
Gal(a1-4)Gal(b1-4)GlcNAc
  glycan array binding signal (z-score): -0.022
[27]
  glycan array binding signal (z-score): 1.43
[28]
  glycan array binding signal (z-score): -0.665
Gal(a1-4)GlcNAc
  glycan array binding signal (z-score): 0.017
Gal(a1-6)Glc
  glycan array binding signal (z-score): -0.354
Gal(b1-2)Gal
  glycan array binding signal (z-score): -1.01
Gal(b1-3)Gal
  glycan array binding signal (z-score): 0.268
Gal(b1-3)Gal(b1-4)GlcNAc
  glycan array binding signal (z-score): 0.386
[29]
  glycan array binding signal (z-score): -0.088
Gal(b1-3)GalNAc
  glycan array binding signal (z-score): -0.203
[30]
  glycan array binding signal (z-score): -0.585
[31]
  glycan array binding signal (z-score): 0.006
[32]
  glycan array binding signal (z-score): -0.751
[33]
  glycan array binding signal (z-score): 0.529
[34]
  glycan array binding signal (z-score): -1.3
Gal(b1-3)GlcNAc
  glycan array binding signal (z-score): -0.704
[35]
  glycan array binding signal (z-score): -0.219
[36]
  glycan array binding signal (z-score): 0.944
[37]
  glycan array binding signal (z-score): 0.638
[38]
  glycan array binding signal (z-score): 1.34
[39]
  glycan array binding signal (z-score): -0.045
[40]
  glycan array binding signal (z-score): 0.856
[41]
  glycan array binding signal (z-score): 0.193
[42]
  glycan array binding signal (z-score): 0.131
